No constants are given. Whether binding was seen depends on the method and setting. Binding seen in cells or lysates may run through a third protein. Some results given as binding are weak or reduced against the parent protein; the word gives no strength. Where a sequence is shown, tags or fusion partners need not be part of it.
Key:
[1] = target: T1, HA-FSP1 (in MHCC-97H) (human) (UniProt Q9BRQ8); experiment: co-IP; MHCC-97H cells co-transfected with Flag-TRIM21 and HA-FSP1, treated with 1 µM RSL3 for 0-4 h; anti-HA antibodies; immunoblot
T1 sequence: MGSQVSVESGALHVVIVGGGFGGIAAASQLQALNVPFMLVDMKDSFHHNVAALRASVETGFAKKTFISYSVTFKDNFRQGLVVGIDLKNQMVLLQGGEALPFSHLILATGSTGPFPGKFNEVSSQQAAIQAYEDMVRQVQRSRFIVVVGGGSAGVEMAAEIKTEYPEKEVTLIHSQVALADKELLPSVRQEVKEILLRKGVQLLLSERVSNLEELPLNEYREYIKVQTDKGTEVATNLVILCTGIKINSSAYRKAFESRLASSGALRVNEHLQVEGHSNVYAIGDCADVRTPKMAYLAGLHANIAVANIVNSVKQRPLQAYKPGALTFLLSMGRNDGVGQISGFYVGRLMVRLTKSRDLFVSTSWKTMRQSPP

By UniProt entry, the sequences of proteins in these tests, tags left out.
UniProt P19474: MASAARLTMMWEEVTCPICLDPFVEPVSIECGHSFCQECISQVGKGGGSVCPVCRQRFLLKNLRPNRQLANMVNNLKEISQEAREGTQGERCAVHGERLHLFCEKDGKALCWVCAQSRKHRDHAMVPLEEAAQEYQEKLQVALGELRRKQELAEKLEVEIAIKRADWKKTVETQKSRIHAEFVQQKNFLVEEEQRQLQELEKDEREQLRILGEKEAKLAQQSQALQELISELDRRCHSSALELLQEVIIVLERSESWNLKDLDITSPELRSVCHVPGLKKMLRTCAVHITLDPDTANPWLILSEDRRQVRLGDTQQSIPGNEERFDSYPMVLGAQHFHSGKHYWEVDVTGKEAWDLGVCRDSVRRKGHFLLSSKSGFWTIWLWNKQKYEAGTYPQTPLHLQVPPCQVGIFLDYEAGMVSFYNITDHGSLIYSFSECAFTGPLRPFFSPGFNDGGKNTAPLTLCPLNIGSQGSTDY

[2] = target: T2, HA-FSP1 (in HEK293T) (human) (UniProt Q9BRQ8); experiment: co-IP; HEK293T cells transfected with HA- and Flag-tagged plasmids; anti-Flag or anti-HA antibodies with Protein A/G magnetic beads, 4 °C overnight; IP lysis buffer 20 mM Tris-HCl pH 7.4, 1 mM EDTA, 150 mM NaCl, 1% NP-40; immunoblot
T2 sequence: T1 sequence

Question: How did the binding [1] turn out when “Flag-TRIM21 (in MHCC-97H) (from UniProt P19474 1-475)” was run?
Answer: binds

Question: How did the binding [2] turn out when “Flag-TRIM21 (in HEK293T) (from UniProt P19474 1-475)” was run?
Answer: binds

Reference: PMC10582465
